Experimental findings from PMC11637825 are described below.

Amino acid sequences for entries named in this document (tags omitted).
UniProt Q14186: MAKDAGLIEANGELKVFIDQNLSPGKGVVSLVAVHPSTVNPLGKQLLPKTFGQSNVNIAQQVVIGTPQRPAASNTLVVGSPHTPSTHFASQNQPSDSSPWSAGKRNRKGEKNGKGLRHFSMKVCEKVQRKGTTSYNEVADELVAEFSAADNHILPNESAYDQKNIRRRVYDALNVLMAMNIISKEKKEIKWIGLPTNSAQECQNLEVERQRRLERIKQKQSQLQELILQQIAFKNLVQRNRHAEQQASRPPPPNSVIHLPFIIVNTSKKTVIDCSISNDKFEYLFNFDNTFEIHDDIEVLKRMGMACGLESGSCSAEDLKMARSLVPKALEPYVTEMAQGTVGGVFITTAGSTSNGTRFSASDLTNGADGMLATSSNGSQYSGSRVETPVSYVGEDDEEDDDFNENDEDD

Results are given in words; binding and its absence hold for the method and conditions named. In cells and extracts the contact can be indirect. Some binding calls cover weakened binding; strength is not graded here.

This experiment deals with T1, cytoskeleton associated protein (CKAP) 2 (human (endogenous in HCT116 and SW480)) (UniProt Q8WWK9).
T1 sequence: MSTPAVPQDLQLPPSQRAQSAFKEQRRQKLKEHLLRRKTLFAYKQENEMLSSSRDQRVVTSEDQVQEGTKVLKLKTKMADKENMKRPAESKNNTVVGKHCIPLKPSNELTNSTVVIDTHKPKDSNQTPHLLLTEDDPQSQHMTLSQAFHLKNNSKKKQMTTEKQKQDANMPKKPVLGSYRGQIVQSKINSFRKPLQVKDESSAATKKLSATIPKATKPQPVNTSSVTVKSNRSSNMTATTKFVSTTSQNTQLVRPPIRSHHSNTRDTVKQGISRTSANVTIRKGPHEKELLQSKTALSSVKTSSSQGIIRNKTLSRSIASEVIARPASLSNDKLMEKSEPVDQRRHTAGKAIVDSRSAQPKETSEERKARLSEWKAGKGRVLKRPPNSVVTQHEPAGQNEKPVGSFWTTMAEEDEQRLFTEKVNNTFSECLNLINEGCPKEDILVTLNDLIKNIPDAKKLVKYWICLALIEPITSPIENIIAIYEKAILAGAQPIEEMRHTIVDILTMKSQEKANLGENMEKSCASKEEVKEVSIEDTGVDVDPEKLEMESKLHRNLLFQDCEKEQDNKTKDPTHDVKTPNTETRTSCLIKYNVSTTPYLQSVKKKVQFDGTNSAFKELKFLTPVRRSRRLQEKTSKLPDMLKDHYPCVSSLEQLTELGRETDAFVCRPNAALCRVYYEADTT
The experiment can be described thus: co-IP; HCT116 and SW480 cells lysed in RIPA buffer (50 mM Tris pH 7.4, 150 mM NaCl, 1 mM EDTA, 1% Triton X-100, 10% glycerol); supernatants immunoprecipitated with anti-CKAP2 antibody (ab85889), magnetic protein A/G beads, 4°C, 2 h.

On to TFDP1 (from UniProt Q14186 1-410), for which the binding entry is “binds”.
